Our source for the binding values is article PMC10912198.

Protein sequences, listed by entry. Tags and fused reporters are not part of them. Lines headed by an entry give the natural chain unless they say otherwise; changes in a name come on top. Residues count along the entry.
UniProt Q9CXZ1, residues 43-175: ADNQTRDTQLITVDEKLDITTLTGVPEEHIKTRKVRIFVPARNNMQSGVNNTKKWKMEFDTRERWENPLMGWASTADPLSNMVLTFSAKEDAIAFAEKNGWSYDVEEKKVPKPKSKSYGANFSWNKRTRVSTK
UniProt Q99JB2: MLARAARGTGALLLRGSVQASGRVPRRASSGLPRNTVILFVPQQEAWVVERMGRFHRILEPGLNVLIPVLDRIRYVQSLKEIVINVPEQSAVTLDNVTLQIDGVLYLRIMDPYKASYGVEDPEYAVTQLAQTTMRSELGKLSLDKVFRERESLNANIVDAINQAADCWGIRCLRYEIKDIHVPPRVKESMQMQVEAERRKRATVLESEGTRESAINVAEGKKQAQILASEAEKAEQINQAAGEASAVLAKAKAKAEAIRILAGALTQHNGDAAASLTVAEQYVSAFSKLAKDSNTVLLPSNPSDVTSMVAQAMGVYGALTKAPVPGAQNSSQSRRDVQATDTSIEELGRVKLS

This assay has as its target GST-NDUFS4 fusion protein (UniProt Q9CXZ1). Nature of the assay: pull-down; 2 ug GST or GST-NDUFS4 immobilized on Glutathione Sepharose 4B beads, incubated 3 h at 4 C with cleared lysate (TNTE buffer) of HEK293T cells expressing STOML2-HA or deletion mutants; immunoblot; only the target purified. In general terms: In western blotting, separated proteins are transferred to a membrane and probed.

These are yes or no findings as the source states them, for the method shown. Binding seen in cells or lysates may run through a third protein. A result given as binding can be weak or reduced; the word gives no strength.

On to STOML2 Δβ1-HA (from UniProt Q99JB2), for which the binding result was “binds”. In the case of STOML2 Δα5-HA (from UniProt Q99JB2), the binding result is on record as “binds”.
